# Experimental data taken from PubChem BioAssay AID330 (DTP/NCI, 2004).
# The list shows only some results of the screen, not a fair sample: it is rich in T/C values a quarter to a half above the control, in often repeated tests (any T/C) and in doses without a T/C. Further doses and runs are listed elsewhere. T/C is the treated group as % of the vehicle group. Some entries give survivors of the animals treated and no T/C: the source files T/C as zero there, which appears to mark a toxic dose or a test without result, not a measured value. Some doses without a T/C left all or most animals alive at the check, yet need not have been tolerated: the source hardly ever lists a survival T/C far under the control, and the zero likely stands for such cases as well. Survivors were counted at the toxicity check, usually on the fifth day, unless a day is given; later deaths do not show. Schedule codes are those of the source, taken here to give the interval after Q, in days (D) or hours (H), and the number of doses after X. Brackets with × stand for listed records that agree. Some entries hold several experiments; their values stand side by side, smallest first. For survival time, this PubChem deposit counts one and a half times the control or more as active, and values a quarter to a half above the control carry no call in these data; other NCI protocols may use other cut-offs. Some T/C values carry the count of animals alive at the toxicity check (mostly the fifth day); without a count, all were alive then.
# Test system: P388 leukemia ip, CD2F1 mice, survival T/C
# Test: NCI In Vivo Anticancer Drug Screen. Data for tumor model P388 Leukemia (intraperitoneal) in CD2F1 (CDF1) mice
# Conditions: T/C endpoint: median survival time, higher T/C = longer survival
# [1] = dose: 200.0 mg/kg/injection, schedule: Q01DX009 (ip), vehicle: saline
# [2] = dose: 400.0 mg/kg/injection, schedule: Q01DX009 (ip), vehicle: saline with Tween-80
# [3] = dose: 240.0 mg/kg/injection, schedule: Q01DX005 (ip), vehicle: saline with Tween-80
# [4] = dose: 200.0 mg/kg/injection, schedule: Q01DX009 (ip), vehicle: Klucel (hydroxypropylcellulose) (HPC)
# [5] = dose: 400.0 mg/kg/injection, schedule: Q01DX009 (ip), vehicle: Klucel (hydroxypropylcellulose) (HPC)
# [6] = dose: 240.0 mg/kg/injection, schedule: Q01DX005 (ip), vehicle: Klucel (hydroxypropylcellulose) (HPC)
# [7] = dose: 200.0 mg/kg/injection, schedule: Q01DX009 (ip), vehicle: saline with Tween-80
structure (smiles),measurement,setting,value
C1=C[N-]c2c3c(ccc2=C1)=CC=C[N-]3.C1=C[N-]c2c3c(ccc2=C1)=CC=C[N-]3.O=[N+]([O-])O.[Cu+],survivor count,"dose: 12.5 mg/kg/injection, schedule: Q04DX002 (ip), vehicle: saline",5 of 6
same,survivor count,"dose: 100.0 mg/kg/injection, schedule: Q04DX002 (ip), vehicle: suspension in saline",0 of 6
same,survivor count,"dose: 200.0 mg/kg/injection, schedule: Q04DX002 (ip), vehicle: suspension in saline",0 of 6
same,survivor count,"dose: 400.0 mg/kg/injection, schedule: Q04DX002 (ip), vehicle: suspension in saline",0 of 6
CC(C)CCOCCOCCCN1C(=O)C2C3C=CC(C3)C2C1=O (configuration not stated),survivor count,"dose: 200.0 mg/kg/injection, schedule: Q01DX005 (ip), vehicle: Klucel (hydroxypropylcellulose) (HPC)",3 of 5
Cc1c2cc[n+](C)c(C)c2cc2c1[nH]c1ccc(O)cc12,T/C,"dose: 1.56 mg/kg/injection, schedule: Q04DX002 (ip), vehicle: water",130 % of control
same,T/C,"dose: 3.12 mg/kg/injection, schedule: Q04DX002 (ip), vehicle: water",135 % of control
same,T/C,"dose: 5.0 mg/kg/injection, schedule: Q04DX002 (ip), vehicle: water",140 % of control
same,T/C,"dose: 6.25 mg/kg/injection, schedule: Q04DX002 (ip), vehicle: water",141 % of control
same,T/C,"dose: 12.5 mg/kg/injection, schedule: Q04DX002 (ip), vehicle: water",149 % of control
same,T/C,"dose: 25.0 mg/kg/injection, schedule: Q04DX002 (ip), vehicle: water",141 % of control
CC1(C)CC(=O)[C@H]2SCC(=O)CC21 (some centres not stated),survivor count,"dose: 200.0 mg/kg/injection, schedule: Q01DX005 (ip), vehicle: saline with Tween-80",0 of 6
CCCN(CCC)CN(CCC)CCC,survivor count,[1],2 of 6
COc1c(Br)c2c(c(OC)c1OC)-c1ccc(OC)c(=O)cc1C(NC(C)=O)CC2 (configuration not stated),T/C,"dose: 0.39 mg/kg/injection, schedule: Q01DX009 (ip), vehicle: Klucel (hydroxypropylcellulose) (HPC)",133 % of control
same,T/C,"dose: 0.78 mg/kg/injection, schedule: Q01DX009 (ip), vehicle: Klucel (hydroxypropylcellulose) (HPC)",148 % of control
same,survivor count,"dose: 6.25 mg/kg/injection, schedule: Q01DX009 (ip), vehicle: Klucel (hydroxypropylcellulose) (HPC)",3 of 5
same,survivor count,"dose: 12.5 mg/kg/injection, schedule: Q01DX009 (ip), vehicle: Klucel (hydroxypropylcellulose) (HPC)",0 of 5
same,survivor count,"dose: 25.0 mg/kg/injection, schedule: Q01DX009 (ip), vehicle: Klucel (hydroxypropylcellulose) (HPC)",0 of 5
NC(Cc1ccccc1[N+](=O)[O-])C(=O)O (configuration not stated),survivor count,[2],5 of 6
CCN(CC)CCOC(=O)Nc1cc(C)cc(C)c1,survivor count,[3],0 of 6
Oc1c(Cl)cc(Cl)cc1/C=N/NC(=S)Nc1cc(C(F)(F)F)cc(C(F)(F)F)c1,survivor count,"dose: 200.0 mg/kg/injection, schedule: Q01DX009 (ip), vehicle: olive oil, sesame oil, peanut oil",6 of 6
same,survivor count,"dose: 400.0 mg/kg/injection, schedule: Q01DX009 (ip), vehicle: olive oil, sesame oil, peanut oil",6 of 6
[CH3][Sn]1([CH3])[O]c2ccccc2C=NCCN=Cc2ccccc2[O]1,T/C,"dose: 50.0 mg/kg/injection, schedule: Q01DX009 (ip), vehicle: saline",127 and 129 % of control
same,T/C,"dose: 100.0 mg/kg/injection, schedule: Q01DX009 (ip), vehicle: saline",126 and 143 % of control
same,survivor count,[1],2 of 6
CNCC(=O)NC(CO)C(=O)NC(CO)C(=O)NC1C(C(N)=O)OC(n2ccc(N)nc2=O)C(O)C1O (configuration not stated),survivor count,"dose: 1.6 mg/kg/injection, schedule: Q01DX009 (ip), vehicle: water",6 of 6
O=C1c2ccccc2C(=O)c2c(NCCSCCO)ccc(NCCSCCO)c21,survivor count,"dose: 256.0 mg/kg/injection, schedule: Q01DX009 (ip), vehicle: Klucel (hydroxypropylcellulose) (HPC)",8 of 8
CCC(C)C1NC(=O)C2C(CCN2C(=O)C(Cc2c[nH]c3ccccc23)NC(=O)C(CC(C)C)N(C)C)Oc2ccc(cc2)/C=C\NC1=O (configuration not stated),survivor count,"dose: 400.0 mg/kg/injection, schedule: Q04DX003 (ip), vehicle: saline with Tween-80",3 of 6
CC(C)C1=CC23CCC4C(C)(C(=O)O)CCCC4(C)C2CC1C1C(=O)N(CCCN(C)C)C(=O)C13 (configuration not stated),survivor count,[3],0 of 6
CCOC1NC(=O)Oc2ccccc21 (configuration not stated),T/C,"dose: 25.0 mg/kg/injection, schedule: Q01DX005 (ip), vehicle: Klucel (hydroxypropylcellulose) (HPC)","98 (2×), 100, 103, 109 % of control"
same,T/C,"dose: 50.0 mg/kg/injection, schedule: Q01DX005 (ip), vehicle: Klucel (hydroxypropylcellulose) (HPC)","96 (2×), 105, 113 % of control"
same,T/C,"dose: 100.0 mg/kg/injection, schedule: Q01DX005 (ip), vehicle: Klucel (hydroxypropylcellulose) (HPC)","99, 108, 113, 124 % of control"
same,T/C,"dose: 200.0 mg/kg/injection, schedule: Q01DX005 (ip), vehicle: Klucel (hydroxypropylcellulose) (HPC), evaluated on day 23",110 % of control [5 of 6 alive]
same,T/C,"dose: 200.0 mg/kg/injection, schedule: Q01DX005 (ip), vehicle: Klucel (hydroxypropylcellulose) (HPC), evaluated on day 30","111, 114, 116, 137 % of control"
same,T/C,[4],"125, 131, 148 % of control"
same,survivor count,"dose: 333.0 mg/kg/injection, schedule: Q01DX005 (ip), vehicle: Klucel (hydroxypropylcellulose) (HPC)",2 of 6
same,survivor count,"dose: 400.0 mg/kg/injection, schedule: Q01DX005 (ip), vehicle: Klucel (hydroxypropylcellulose) (HPC)","0 of 6, 1 of 6, 3 of 6"
same,survivor count,[5],2 of 6
same,survivor count,"dose: 556.0 mg/kg/injection, schedule: Q01DX005 (ip), vehicle: Klucel (hydroxypropylcellulose) (HPC)",0 of 6
Cc1cc(Nc2ccc(O)c(CN3CCCC3)c2)cc(Nc2ccc(O)c(CN3CCCC3)c2)n1,survivor count,"dose: 100.0 mg/kg/injection, schedule: Q01DX005 (ip), vehicle: saline",0 of 6
same,survivor count,"dose: 200.0 mg/kg/injection, schedule: Q01DX005 (ip), vehicle: saline",0 of 6
same,survivor count,"dose: 400.0 mg/kg/injection, schedule: Q01DX005 (ip), vehicle: saline",0 of 6
COc1cc2c(cc1OC)-c1cc(C)c3cc(OC)c(OC)cc3[n+]1CC2,survivor count,"dose: 400.0 mg/kg/injection, schedule: Q01DX009 (ip), vehicle: water",4 of 6
OCn1nnc2ccccc21,T/C,"dose: 50.0 mg/kg/injection, schedule: Q01DX009 (ip), vehicle: Klucel (hydroxypropylcellulose) (HPC)",125 % of control (2×)
same,T/C,"dose: 100.0 mg/kg/injection, schedule: Q01DX009 (ip), vehicle: Klucel (hydroxypropylcellulose) (HPC)",127 and 130 % of control [5 of 6 alive]
same,T/C,[4],142 and 142 % of control [5 of 6 alive]
same,T/C,[5],137 % of control [4 of 6 alive]
same,survivor count,[5],2 of 6 and 4 of 6
O=C(O)/C=N/NS(=O)(=O)c1ccc2ccccc2c1,T/C,"dose: 12.5 mg/kg/injection, schedule: Q01DX009 (ip), vehicle: other",135 and 136 % of control
same,T/C,"dose: 25.0 mg/kg/injection, schedule: Q01DX009 (ip), vehicle: other",144 and 146 % of control
same,survivor count,"dose: 200.0 mg/kg/injection, schedule: Q01DX009 (ip), vehicle: other",6 of 6
same,survivor count,"dose: 400.0 mg/kg/injection, schedule: Q01DX009 (ip), vehicle: other",0 of 6 and 4 of 6
N#CC1SC(C#N)C(c2ccc(Cl)cc2)OC1c1ccc(Cl)cc1 (configuration not stated),survivor count,"dose: 50.0 mg/kg/injection, schedule: Q01DX005 (ip), vehicle: saline with Tween-80",6 of 6
C1COCCOCCOCCO1.[Br][Sn]([Br])([Br])[Br],survivor count,[6],6 of 6
CCOC(=O)N=C=S,survivor count,[7],3 of 6
C=CCNC(=O)c1ccccc1SC(C)=O,T/C,"dose: 100.0 mg/kg/injection, schedule: Q01DX009 (ip), vehicle: saline with Tween-80",138 % of control
same,T/C,[7],141 % of control
same,T/C,[2],130 % of control [5 of 6 alive]
COc1cc2cc3c(c(O)c2c(OC)c1OC)C(=O)CC(C)(C)C3,survivor count,"dose: 100.0 mg/kg/injection, schedule: Q01DX005 (ip), vehicle: saline with Tween-80",5 of 5
CSC(=S)/C(=C/Nc1ncccn1)c1ccccc1,survivor count,"dose: 15.0 mg/kg/injection, schedule: Q01DX005 (ip), vehicle: Klucel (hydroxypropylcellulose) (HPC)",6 of 6
same,survivor count,"dose: 60.0 mg/kg/injection, schedule: Q01DX005 (ip), vehicle: Klucel (hydroxypropylcellulose) (HPC)",6 of 6 (2×)
same,survivor count,[6],6 of 6
